Test results: the supplement of paper PMC12819154, “High-throughput peptide-centric local stability assay extends protein–ligand identification to membrane proteins, tissues and bacteria” (Nature Structural & Molecular Biology, 2025)
Some of the results follow. Most entries show no effect beyond the scatter of the controls.

Sequences of proteins named here, by UniProt entry; tags and fusion partners are left off. A change or cut given only in a name is not applied to a line headed by its entry.
UniProt P11589: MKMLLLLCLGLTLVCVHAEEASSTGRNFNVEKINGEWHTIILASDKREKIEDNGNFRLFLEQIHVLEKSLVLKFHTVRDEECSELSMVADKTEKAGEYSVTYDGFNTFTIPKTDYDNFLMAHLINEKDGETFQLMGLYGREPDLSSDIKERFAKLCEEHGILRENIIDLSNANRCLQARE
UniProt P01942: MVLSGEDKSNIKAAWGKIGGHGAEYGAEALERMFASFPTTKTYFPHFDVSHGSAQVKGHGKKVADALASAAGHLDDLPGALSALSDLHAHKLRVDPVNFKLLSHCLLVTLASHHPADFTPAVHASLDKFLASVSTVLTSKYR
UniProt P14873: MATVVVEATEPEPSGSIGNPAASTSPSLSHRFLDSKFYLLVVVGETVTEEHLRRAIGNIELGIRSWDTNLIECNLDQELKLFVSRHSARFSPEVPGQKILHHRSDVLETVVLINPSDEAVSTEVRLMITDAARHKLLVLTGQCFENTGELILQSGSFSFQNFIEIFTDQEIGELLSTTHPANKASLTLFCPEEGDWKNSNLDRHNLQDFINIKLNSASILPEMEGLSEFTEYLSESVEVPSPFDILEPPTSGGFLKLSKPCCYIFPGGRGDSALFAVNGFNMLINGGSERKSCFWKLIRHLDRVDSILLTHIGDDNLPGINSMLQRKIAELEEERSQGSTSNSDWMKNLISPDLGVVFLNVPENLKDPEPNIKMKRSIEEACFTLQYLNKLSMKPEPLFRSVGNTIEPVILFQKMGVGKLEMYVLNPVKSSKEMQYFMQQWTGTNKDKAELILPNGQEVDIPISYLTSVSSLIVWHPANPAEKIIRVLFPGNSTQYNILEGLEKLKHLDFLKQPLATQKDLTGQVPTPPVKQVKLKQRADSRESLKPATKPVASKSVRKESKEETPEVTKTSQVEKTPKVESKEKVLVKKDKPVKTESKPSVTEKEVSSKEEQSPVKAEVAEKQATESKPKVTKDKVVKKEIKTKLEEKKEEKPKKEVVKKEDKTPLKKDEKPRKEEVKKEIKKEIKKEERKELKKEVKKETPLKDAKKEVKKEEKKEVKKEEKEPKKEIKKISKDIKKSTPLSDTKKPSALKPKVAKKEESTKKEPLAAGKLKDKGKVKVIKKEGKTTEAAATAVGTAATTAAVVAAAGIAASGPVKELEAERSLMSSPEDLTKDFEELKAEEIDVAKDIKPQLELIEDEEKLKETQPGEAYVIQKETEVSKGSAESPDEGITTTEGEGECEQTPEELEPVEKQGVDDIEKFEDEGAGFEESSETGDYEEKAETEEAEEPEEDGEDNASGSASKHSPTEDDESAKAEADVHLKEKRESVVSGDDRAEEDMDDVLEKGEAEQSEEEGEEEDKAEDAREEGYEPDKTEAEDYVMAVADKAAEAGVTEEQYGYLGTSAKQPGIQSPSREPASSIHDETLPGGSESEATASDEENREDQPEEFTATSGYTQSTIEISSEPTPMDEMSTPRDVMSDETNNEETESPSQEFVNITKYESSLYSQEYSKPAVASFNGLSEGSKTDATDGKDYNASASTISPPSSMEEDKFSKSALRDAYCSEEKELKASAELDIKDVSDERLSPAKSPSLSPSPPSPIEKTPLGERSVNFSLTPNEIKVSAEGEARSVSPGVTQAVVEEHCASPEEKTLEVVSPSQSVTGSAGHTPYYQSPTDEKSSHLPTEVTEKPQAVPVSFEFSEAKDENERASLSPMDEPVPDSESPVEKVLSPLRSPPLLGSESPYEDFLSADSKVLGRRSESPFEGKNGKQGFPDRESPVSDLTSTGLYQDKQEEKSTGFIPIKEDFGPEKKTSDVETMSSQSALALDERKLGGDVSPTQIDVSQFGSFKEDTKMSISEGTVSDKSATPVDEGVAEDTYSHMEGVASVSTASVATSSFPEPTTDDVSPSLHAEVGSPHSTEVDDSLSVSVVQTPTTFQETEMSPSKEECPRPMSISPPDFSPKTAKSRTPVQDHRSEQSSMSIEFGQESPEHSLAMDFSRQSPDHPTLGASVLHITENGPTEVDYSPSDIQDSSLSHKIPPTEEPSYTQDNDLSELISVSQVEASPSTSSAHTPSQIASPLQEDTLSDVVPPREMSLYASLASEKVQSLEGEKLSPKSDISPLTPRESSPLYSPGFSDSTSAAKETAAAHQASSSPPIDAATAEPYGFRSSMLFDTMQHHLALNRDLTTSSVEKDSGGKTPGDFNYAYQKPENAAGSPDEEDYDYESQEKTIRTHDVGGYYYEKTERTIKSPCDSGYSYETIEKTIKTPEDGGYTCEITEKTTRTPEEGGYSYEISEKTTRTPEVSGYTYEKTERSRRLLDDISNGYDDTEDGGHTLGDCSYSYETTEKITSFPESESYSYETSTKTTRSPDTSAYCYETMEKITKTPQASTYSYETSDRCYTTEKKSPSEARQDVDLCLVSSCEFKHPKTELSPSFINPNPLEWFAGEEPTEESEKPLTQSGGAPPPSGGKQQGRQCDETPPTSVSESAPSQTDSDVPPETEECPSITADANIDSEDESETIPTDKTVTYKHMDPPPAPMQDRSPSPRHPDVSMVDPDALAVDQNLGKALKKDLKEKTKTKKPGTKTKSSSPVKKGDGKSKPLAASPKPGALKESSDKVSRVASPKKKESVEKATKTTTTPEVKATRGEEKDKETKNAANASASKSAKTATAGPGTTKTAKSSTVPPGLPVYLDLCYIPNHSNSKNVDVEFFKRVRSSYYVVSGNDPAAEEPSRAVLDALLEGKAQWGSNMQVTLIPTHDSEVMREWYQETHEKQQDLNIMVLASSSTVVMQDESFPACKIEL
UniProt O89114: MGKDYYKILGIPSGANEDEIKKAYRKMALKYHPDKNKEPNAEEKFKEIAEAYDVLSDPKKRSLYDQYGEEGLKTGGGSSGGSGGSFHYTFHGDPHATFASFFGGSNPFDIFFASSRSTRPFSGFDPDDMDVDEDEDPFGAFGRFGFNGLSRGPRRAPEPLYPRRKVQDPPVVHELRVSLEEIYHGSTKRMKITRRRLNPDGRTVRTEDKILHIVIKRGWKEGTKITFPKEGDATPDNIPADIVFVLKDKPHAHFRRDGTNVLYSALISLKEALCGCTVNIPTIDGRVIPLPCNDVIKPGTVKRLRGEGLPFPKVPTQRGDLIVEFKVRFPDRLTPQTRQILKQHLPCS
UniProt P11928: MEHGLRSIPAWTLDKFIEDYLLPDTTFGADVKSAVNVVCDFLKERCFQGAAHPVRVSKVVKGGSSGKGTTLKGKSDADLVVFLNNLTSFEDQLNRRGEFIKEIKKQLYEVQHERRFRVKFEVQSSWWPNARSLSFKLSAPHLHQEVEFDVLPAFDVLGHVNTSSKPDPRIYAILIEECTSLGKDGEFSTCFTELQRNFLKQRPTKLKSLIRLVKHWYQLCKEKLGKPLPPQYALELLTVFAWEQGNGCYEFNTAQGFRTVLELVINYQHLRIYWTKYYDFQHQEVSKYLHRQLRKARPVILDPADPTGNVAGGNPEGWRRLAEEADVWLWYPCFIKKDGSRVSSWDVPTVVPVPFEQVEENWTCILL
UniProt P0C027: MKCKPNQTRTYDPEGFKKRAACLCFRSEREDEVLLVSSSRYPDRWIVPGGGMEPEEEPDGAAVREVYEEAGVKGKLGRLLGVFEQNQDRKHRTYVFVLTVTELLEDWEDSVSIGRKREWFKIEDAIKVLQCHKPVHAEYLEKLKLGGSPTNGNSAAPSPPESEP
UniProt P0DN34: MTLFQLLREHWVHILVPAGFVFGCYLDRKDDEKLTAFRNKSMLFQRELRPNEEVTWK
UniProt P08680: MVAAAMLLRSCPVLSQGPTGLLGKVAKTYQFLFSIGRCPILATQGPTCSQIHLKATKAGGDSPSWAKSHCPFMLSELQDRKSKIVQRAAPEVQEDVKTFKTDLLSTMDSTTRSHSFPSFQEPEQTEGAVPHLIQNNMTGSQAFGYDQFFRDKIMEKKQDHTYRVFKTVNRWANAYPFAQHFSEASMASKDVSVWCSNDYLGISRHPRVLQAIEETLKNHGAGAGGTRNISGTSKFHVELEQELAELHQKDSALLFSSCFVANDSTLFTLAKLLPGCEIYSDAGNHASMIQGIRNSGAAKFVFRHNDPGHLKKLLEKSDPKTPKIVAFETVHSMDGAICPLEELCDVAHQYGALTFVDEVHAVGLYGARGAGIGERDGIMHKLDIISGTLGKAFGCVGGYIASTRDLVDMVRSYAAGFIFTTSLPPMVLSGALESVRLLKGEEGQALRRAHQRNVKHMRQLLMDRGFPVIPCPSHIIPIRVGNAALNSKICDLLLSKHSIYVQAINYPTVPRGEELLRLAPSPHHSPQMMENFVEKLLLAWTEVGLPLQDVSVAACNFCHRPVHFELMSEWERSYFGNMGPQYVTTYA
UniProt P05784: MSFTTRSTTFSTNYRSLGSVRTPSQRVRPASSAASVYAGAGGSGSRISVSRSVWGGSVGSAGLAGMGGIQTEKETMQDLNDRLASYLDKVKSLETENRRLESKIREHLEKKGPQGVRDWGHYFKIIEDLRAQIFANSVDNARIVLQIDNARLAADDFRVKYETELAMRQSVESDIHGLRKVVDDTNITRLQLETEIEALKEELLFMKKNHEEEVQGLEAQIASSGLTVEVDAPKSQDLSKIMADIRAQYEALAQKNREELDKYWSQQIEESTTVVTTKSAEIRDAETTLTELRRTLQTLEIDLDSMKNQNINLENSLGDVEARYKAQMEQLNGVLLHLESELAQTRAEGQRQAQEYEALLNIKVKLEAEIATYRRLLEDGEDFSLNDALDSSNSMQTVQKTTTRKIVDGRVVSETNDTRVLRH
UniProt P03930: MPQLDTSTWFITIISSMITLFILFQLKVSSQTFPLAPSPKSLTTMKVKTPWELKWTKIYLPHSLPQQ
UniProt P08752, whole entry: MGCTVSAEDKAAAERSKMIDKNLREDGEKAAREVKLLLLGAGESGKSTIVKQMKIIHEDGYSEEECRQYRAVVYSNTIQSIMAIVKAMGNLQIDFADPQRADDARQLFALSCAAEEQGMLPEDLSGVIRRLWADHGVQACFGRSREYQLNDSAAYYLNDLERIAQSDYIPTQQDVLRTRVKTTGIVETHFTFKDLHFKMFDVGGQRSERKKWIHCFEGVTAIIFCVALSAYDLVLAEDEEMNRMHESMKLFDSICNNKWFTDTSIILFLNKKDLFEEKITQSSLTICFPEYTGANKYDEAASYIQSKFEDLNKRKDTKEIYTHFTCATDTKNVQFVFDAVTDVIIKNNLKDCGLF
UniProt P12849, whole entry: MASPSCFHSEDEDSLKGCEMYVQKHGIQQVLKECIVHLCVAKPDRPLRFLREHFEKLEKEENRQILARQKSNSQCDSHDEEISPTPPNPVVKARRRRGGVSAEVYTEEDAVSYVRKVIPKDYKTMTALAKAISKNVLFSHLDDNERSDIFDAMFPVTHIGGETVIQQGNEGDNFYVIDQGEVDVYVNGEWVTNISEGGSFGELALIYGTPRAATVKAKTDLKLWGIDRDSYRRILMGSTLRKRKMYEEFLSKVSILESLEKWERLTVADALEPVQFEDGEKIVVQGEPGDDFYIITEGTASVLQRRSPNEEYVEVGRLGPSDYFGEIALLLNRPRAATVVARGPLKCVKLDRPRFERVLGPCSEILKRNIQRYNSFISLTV
UniProt O88990, whole entry: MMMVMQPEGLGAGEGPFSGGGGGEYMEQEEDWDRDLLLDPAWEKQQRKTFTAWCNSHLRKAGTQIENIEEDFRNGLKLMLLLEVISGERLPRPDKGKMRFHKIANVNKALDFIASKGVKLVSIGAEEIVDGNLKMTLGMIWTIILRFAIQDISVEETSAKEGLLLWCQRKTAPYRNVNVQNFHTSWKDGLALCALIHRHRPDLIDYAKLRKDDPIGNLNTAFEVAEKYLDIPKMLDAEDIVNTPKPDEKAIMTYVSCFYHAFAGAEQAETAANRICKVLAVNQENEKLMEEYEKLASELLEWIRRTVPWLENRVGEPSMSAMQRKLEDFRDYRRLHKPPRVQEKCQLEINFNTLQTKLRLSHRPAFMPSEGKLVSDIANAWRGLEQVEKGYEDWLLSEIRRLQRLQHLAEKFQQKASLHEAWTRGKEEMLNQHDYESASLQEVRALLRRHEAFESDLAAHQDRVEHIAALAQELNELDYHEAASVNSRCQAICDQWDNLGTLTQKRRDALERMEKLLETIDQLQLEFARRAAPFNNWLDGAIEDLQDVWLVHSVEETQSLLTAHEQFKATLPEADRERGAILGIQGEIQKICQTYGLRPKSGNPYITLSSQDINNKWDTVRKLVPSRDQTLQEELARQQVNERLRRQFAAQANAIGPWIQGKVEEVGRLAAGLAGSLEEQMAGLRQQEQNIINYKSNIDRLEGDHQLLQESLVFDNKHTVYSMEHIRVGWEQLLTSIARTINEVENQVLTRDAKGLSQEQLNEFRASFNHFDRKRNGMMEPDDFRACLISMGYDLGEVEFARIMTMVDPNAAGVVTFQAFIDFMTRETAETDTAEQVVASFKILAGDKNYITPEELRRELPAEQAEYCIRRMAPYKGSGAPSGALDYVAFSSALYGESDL
UniProt P0DJE0: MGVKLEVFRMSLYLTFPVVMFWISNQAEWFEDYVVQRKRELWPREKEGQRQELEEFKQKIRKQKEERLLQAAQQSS

Compound: CN[C@@H]1C[C@H]2O[C@@](C)([C@@H]1OC)n1c3ccccc3c3c4c(c5c6ccccc6n2c5c31)C(=O)NC4 [staurosporine]
Assay: log2 fold change of tryptic peptide abundance, ligand vs vehicle (limited proteolysis) (log2 ratio); higher = more trypsin-susceptible (destabilized)
Conditions: ligand concentration: 20 uM; sample: mouse liver crude lysate; replicate design: treated separately

Question: How did the log2 fold change turn out when “UniProt O89020 (peptide sequence: NVCGALIK, peptide start residue: 222)” was run?
Answer: 0.216

Question: With “UniProt P00493 (peptide sequence: VASLLVKR, peptide start residue: 160)” as the target, how does the log2 fold change read?
Answer: -1.22

Question: Which log2 fold change does the source give for “UniProt P08122 (peptide sequence: SVSIGYLLVK, peptide start residue: 1480)” here?
Answer: 0.484

Question: How did the log2 fold change turn out when “UniProt P11589 (peptide sequence: LFLEQIHVLEK, peptide start residue: 58)” was run?
Answer: 0.0259

Question: How did the log2 fold change turn out when “UniProt P07310 (peptide sequence: LNYKPQEEYPDLSK, peptide start residue: 12)” was run?
Answer: -0.362

Question: Which log2 fold change does the source give for “UniProt P10404 (peptide sequence: STGTDPVTR, peptide start residue: 210)” here?
Answer: -0.235

Question: With “UniProt P01942 (peptide sequence: TYFPHFDVSHGSAQVK, peptide start residue: 42)” as the target, how does the log2 fold change read?
Answer: -0.115

Question: Which log2 fold change does the source give for “UniProt P10922 (peptide sequence: KSTDHPKYSDMIVAAIQAEK, peptide start residue: 21)” here?
Answer: -0.333

Question: Which log2 fold change does the source give for “UniProt P01901 (peptide sequence: YFVTAVSRPGLGEPR, peptide start residue: 28)” here?
Answer: -0.187

Question: How did the log2 fold change turn out when “UniProt P14873 (peptide sequence: SKPLAASPKPGALK, peptide start residue: 2261)” was run?
Answer: 0.193

Question: For “UniProt P07903 (peptide sequence: KFVIPLEEEEVPCAGVKPLFR, peptide start residue: 21)”, which log2 fold change is on record?
Answer: -0.295

Question: How did the log2 fold change turn out when “UniProt O89114 (peptide sequence: FGFNGLSR, peptide start residue: 144)” was run?
Answer: -0.166

Question: With “UniProt P08551 (peptide sequence: LAAEDATNEK, peptide start residue: 148)” as the target, how does the log2 fold change read?
Answer: 0.582

Question: How did the log2 fold change turn out when “UniProt P11928 (peptide sequence: CFQGAAHPVR, peptide start residue: 46)” was run?
Answer: 0.703

Question: For “UniProt P02301 (peptide sequence: EIAQDFKTDLR, peptide start residue: 74)”, which log2 fold change is on record?
Answer: 0.126

Question: For “UniProt P06800 (peptide sequence: SSNLDEQQELVERDDEK, peptide start residue: 598)”, which log2 fold change is on record?
Answer: 0.427

Question: How did the log2 fold change turn out when “UniProt P13439 (peptide sequence: IDADMVGR, peptide start residue: 189)” was run?
Answer: 0.147

Question: “UniProt P09671 (peptide sequence: GGGEPKGELLEAIKR, peptide start residue: 109)” was tested. Which log2 fold change did it give?
Answer: -0.529

Question: Which log2 fold change does the source give for “UniProt P0C027 (peptide sequence: VLQCHKPVHAEYLEK, peptide start residue: 127)” here?
Answer: -0.162

Question: For “UniProt P00158 (peptide sequence: KTHPLFK, peptide start residue: 6)”, which log2 fold change is on record?
Answer: -0.323

Question: Which log2 fold change does the source give for “UniProt P0DN34 (peptide sequence: TLFQLLR, peptide start residue: 2)” here?
Answer: 0.241

Question: For “UniProt P0DPD9 (peptide sequence: TPVSPPELPEKNFQYR, peptide start residue: 6)”, which log2 fold change is on record?
Answer: 0.229

Question: Which log2 fold change does the source give for “UniProt P04627 (peptide sequence: VAQPTAEQAQAFKNEMQVLRK, peptide start residue: 338)” here?
Answer: -0.619

Question: With “UniProt P08680 (peptide sequence: SHCPFMLSELQDRK, peptide start residue: 68)” as the target, how does the log2 fold change read?
Answer: -0.247

Question: “UniProt P03958 (peptide sequence: AQTPAFNKPK, peptide start residue: 2)” was tested. Which log2 fold change did it give?
Answer: 0.16

Question: “UniProt P05784 (peptide sequence: QAQEYEALLNIKVK, peptide start residue: 352)” was tested. Which log2 fold change did it give?
Answer: 0.618

Question: For “UniProt P11930 (peptide sequence: EAFEEAGVLLLRPR, peptide start residue: 112)”, which log2 fold change is on record?
Answer: -0.504

Question: With “UniProt P13020 (peptide sequence: SGALNSNDAFVLK, peptide start residue: 583)” as the target, how does the log2 fold change read?
Answer: 0.266

Question: For “UniProt P03930 (peptide sequence: IYLPHSLPQQ, peptide start residue: 58)”, which log2 fold change is on record?
Answer: -0.134

Question: For “UniProt P08752 (peptide sequence: YDEAASYIQSK, peptide start residue: 297)”, which log2 fold change is on record?
Answer: 0.388

Question: Which log2 fold change does the source give for “UniProt P12849 (peptide sequence: KMYEEFLSK, peptide start residue: 244)” here?
Answer: 0.192

Question: For “UniProt P0DW87 (peptide sequence: LKEEQATCPNCR, peptide start residue: 140)”, which log2 fold change is on record?
Answer: -0.113

Question: How did the log2 fold change turn out when “UniProt P14106 (peptide sequence: TINSPLRPNQVIR, peptide start residue: 127)” was run?
Answer: -0.205

Question: With “UniProt P08046 (peptide sequence: AFATQSGSQDLK, peptide start residue: 292)” as the target, how does the log2 fold change read?
Answer: 0.0825

Question: For “UniProt P15533 (peptide sequence: KNLHSQIK, peptide start residue: 386)”, which log2 fold change is on record?
Answer: -0.0994

Question: With “UniProt O88990 (peptide sequence: ALDFIASK, peptide start residue: 116)” as the target, how does the log2 fold change read?
Answer: -0.158

Question: For “UniProt P14824 (peptide sequence: GFGSDKESILELITSR, peptide start residue: 35)”, which log2 fold change is on record?
Answer: -0.509

Question: “UniProt P0DJE0 (peptide sequence: QELEEFK, peptide start residue: 51)” was tested. Which log2 fold change did it give?
Answer: -0.178

Question: Which log2 fold change does the source give for “UniProt P13504 (peptide sequence: YPFICVVK, peptide start residue: 311)” here?
Answer: 0.293
